From article PMC11905121
No constants are given. Whether binding was seen depends on the method and setting. Binding seen in cells or lysates may run through a third protein. Some binding calls cover weakened binding; strength is not graded here.

By UniProt entry, the sequences of proteins in these tests, tags left out. Residues count along the entry.
UniProt Q8R4B8: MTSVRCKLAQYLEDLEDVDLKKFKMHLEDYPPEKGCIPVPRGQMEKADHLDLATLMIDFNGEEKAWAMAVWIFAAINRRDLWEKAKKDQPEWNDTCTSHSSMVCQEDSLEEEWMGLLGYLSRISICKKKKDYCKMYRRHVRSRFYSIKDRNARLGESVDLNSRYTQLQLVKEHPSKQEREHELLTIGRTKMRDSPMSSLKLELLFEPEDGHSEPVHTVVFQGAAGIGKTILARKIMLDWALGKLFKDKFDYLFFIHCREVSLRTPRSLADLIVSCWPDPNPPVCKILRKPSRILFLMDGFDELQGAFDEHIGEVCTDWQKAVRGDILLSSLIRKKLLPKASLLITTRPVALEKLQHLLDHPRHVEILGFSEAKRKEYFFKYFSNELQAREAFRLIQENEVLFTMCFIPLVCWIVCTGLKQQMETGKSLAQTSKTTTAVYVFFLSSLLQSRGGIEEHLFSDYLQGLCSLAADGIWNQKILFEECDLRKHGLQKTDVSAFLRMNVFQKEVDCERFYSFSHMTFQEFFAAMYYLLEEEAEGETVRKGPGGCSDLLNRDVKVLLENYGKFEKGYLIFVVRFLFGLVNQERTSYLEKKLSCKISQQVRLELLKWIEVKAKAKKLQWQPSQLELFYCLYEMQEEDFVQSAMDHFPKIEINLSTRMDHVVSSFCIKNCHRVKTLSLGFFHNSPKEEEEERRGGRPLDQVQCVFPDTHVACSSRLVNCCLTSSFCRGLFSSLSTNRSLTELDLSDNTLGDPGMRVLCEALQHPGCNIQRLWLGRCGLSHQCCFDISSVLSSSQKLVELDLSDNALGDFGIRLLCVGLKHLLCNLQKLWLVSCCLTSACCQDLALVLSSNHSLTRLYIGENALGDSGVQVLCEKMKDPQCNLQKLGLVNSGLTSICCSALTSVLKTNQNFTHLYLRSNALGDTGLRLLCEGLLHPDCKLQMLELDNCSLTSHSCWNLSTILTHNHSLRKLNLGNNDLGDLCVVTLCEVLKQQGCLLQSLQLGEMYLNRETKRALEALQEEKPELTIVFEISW
UniProt P48759, residues 18-381: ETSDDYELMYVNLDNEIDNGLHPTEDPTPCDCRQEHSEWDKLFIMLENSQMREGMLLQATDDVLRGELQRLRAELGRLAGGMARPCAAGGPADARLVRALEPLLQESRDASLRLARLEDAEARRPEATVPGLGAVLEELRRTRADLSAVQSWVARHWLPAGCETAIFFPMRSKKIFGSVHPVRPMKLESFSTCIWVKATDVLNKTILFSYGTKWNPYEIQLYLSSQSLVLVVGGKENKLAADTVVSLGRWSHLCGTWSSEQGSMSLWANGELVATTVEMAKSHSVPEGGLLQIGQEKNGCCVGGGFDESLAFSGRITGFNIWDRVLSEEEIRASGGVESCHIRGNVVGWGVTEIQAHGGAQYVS

Target: NLRP3 (mouse (endogenous in primary mouse cardiomyocytes)) (UniProt Q8R4B8)
Experiment: co-IP; cell lysates prepared with a Co-immunoprecipitation Kit (abs955, Absin), pre-cleared; specific primary antibody against the target protein, IgG as control; precipitate analysed by Western blotting; bait not stated

“PTX3 (Pentaxin 3) (from UniProt P48759 18-381)” was tested, and the binding was “binds”.
